Experimental data published in PMC10863188.
These are yes or no findings as the source states them, for the method shown. Binding seen in cells or lysates may run through a third protein. Some results given as binding are weak or reduced against the parent protein; the word gives no strength.

Protein sequences, listed by entry. Tags and fused reporters are not part of them.
UniProt P09429: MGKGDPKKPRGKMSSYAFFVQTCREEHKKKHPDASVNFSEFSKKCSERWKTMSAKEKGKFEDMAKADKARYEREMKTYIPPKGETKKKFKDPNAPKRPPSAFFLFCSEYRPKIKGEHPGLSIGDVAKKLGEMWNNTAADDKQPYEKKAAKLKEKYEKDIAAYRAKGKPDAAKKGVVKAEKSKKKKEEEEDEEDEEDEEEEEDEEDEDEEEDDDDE
UniProt Q09472: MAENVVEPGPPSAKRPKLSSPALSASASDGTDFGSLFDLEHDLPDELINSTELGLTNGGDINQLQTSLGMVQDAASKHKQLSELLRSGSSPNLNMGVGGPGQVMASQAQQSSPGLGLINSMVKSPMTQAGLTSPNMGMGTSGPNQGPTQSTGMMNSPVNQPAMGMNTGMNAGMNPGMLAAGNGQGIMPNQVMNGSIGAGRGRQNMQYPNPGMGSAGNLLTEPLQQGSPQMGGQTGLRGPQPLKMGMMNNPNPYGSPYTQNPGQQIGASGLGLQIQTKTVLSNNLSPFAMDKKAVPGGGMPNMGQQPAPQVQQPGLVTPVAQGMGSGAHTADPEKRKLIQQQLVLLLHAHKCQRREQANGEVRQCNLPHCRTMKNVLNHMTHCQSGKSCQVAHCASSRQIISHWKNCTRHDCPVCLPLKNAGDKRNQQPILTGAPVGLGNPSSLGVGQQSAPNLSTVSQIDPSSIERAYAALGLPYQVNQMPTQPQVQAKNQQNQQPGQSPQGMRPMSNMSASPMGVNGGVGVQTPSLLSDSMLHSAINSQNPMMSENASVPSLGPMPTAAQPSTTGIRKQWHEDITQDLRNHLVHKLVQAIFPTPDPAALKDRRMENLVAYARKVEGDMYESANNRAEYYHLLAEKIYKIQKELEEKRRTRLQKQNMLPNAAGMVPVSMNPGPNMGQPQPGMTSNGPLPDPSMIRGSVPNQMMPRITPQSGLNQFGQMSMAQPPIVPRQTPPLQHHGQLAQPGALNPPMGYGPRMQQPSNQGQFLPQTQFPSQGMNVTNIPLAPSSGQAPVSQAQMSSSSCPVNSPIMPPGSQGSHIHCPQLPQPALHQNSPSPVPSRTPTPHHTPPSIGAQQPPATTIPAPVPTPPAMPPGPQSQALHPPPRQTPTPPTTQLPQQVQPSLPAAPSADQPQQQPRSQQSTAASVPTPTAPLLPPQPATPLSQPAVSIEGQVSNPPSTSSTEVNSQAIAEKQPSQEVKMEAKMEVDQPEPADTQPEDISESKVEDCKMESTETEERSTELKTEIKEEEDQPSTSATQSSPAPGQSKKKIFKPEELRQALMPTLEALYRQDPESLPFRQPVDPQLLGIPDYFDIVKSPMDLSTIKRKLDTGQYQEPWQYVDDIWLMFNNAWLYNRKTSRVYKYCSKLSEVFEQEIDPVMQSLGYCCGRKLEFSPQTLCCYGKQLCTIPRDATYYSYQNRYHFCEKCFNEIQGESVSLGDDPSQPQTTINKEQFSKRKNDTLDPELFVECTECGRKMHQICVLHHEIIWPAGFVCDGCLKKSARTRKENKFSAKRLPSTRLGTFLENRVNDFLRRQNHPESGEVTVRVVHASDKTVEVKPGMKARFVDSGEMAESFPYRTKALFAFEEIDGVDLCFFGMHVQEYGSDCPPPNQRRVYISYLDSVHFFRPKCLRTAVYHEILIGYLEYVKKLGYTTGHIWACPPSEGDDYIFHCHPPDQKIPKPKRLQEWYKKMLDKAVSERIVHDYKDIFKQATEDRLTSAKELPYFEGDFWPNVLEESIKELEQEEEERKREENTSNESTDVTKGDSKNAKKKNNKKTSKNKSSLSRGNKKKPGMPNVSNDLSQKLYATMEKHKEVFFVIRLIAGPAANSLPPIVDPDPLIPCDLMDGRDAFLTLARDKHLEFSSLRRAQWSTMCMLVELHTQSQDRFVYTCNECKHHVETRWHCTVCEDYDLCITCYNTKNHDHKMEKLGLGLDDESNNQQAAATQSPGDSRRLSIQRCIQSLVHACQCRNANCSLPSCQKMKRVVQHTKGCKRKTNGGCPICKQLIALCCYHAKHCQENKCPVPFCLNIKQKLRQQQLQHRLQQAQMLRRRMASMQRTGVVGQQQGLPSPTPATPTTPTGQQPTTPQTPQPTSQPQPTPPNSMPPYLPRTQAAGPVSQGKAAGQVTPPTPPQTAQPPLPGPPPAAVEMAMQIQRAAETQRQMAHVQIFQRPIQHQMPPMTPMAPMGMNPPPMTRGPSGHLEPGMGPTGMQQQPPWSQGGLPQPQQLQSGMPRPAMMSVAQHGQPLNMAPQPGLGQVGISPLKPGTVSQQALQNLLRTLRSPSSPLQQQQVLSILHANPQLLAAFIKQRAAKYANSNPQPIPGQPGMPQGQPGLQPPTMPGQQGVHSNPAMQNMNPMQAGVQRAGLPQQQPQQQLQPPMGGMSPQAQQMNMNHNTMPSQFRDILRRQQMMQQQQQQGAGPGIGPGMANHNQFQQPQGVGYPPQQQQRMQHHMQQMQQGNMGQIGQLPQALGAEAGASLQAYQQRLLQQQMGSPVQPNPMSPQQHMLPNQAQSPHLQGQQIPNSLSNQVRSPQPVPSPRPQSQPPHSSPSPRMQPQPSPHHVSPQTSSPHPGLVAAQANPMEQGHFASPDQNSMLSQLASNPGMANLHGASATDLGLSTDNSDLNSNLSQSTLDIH
UniProt Q96DH6: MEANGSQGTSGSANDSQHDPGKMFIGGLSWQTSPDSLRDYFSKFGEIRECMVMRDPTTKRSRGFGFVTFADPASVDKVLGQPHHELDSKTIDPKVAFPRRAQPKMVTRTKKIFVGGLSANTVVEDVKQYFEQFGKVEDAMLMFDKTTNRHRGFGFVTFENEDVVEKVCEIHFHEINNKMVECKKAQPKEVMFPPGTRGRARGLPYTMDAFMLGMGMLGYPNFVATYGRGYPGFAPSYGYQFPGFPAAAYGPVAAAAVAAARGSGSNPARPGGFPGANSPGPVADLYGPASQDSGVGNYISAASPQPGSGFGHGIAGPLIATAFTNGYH

Key:
Myc-HMGB1 = Myc-HMGB1 (UniProt P09429); experiment: co-IP; exogenous co-immunoprecipitation of Flag-MSI2 and Myc-HMGB1 in HEK 293 T cells; 2 ug antibody 8 h at 4 C, Protein A/G magnetic beads, Western blot
[1] = molecular target: acetyltransferase P300 (EP300), endogenous (human (endogenous in SW620 and LOVO)) (UniProt Q09472); experiment: co-IP; endogenous co-immunoprecipitation from SW620 and LOVO cell lysates; 2 ug antibody 8 h at 4 C, Protein A/G magnetic beads, Western blot

Flag-MSI2 (from UniProt Q96DH6 1-328)
binding (Myc-HMGB1): no binding

Musashi-2 (MSI2), endogenous (from UniProt Q96DH6 1-328)
binding [1]: binds
